The results are deposited in PubChem (AID1159506; NCATS, 2015).

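Genome-wide siRNA knockdown in TC32 Ewing sarcoma cells, comparing luciferase light from an NR0B1-promoter reporter with a CMV-promoter reporter 48 hours after transfection.
Each siRNA was applied at 20 nM.
A z-score of the log NR0B1-over-CMV signal, less the median of siRNAs with the same seed; more negative means a stronger specific loss of the NR0B1 reporter.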

The strongest results of the screen are mostly left out here.
Sequences are the guide (antisense) strand, without overhang.

siRNA	gene	seed-corrected z-score
UUGAGGAUCAGCCUUAGAC	RANBP3L	0.5899
UUCCGGUAGAGCUUCAGCG	UBXN11	-0.8855
UUAGAUGAACACUUCCUGC	LINC00922	0.1459
UUUAGUCUCAUAGCAUACC	AFF3	-0.6075
UAUCGAACUUCAGGUAUUC	NDUFA10	0.4703
UUUCGAGCAAACCUCAGUC	KCNQ5	-0.9419
UCUUCUAACUGCGUCAAUG	DNAJC18	0.1063
UAAUAUCCAACAUAGAAUG	BLOC1S6	-0.1617
UCUAUAAUCAGAGUUGCCG	GNPNAT1	-0.6897
UAAGGGUCCCGGCACAAAC	ZNF503	-0.6912
UAAUAGCCUUGGGAGAAGC	RTP5	0.1235
UUCGUUCUCUUGUACCACC	JARID2	-0.2323
UGCUUGUCUCUGCUAGUCC	PTCHD4	0.2082
UCUGUAUUGUACGUGCUCC	FAR2	-0.0803
UUUCUAAGAACAGUGAUGA	TREML4	-0.8187
AAUUUCUCCAUUUCAAUGU	LOC645397	-1.827
UGUAAAUAACUAGAUUUCC	NME1	-0.1527
UUAGAGGCUAGAAUCACUC	SEC61A1	0.1781
UGACAGAAUUCGACAAGGC	FOXO3	-0.1243
AAAGAUGCUAGCUAGGAUG	SLC20A1	0.6638
UCUUAUACAGGAAGUCUUC	NCMAP	1.502
UCUAAUUUAGUAAUCCUUC	LSM5	-1.035
ACAUUGUUCACCUCGAUCA	AVPR1A	1.867
UAUCUUGACCCGGUACUCG	PLXND1	-0.5728
UAGUGUAACUUUUAACCUC	ANKRD11	-0.3066
UUCUCUAUAGUGUCCAGCG	CDNF	0.8531
AAUGAUCAAAUGGAUUCCC	GPR180	0.79
UUUGCUGUUAGUAACUAGG	RPL22P3	0.5658
UACCUUCCGAAGUCCUCCG	C9orf172	-0.8985
UCAGGGUACAUGUAUCGGU	KIAA1147	0.4444
UGCUUUUCAGGCUUAGGUG	NDRG3	0.5609
UCACGUCUCACUACUACCU	OSCAR	-0.07021
UAUGAUCUCUACUAAUAUC	DLGAP1-AS5	0.2499
UAAGAUUGAGAUUAGGACG	CD200	-0.03832
UCUUAGAGCAGCUCAGACU	MESP2	0.7272
AUAGGUAUAGGCAAUGUCC	NAALADL1	0.6275
UCUGGGUUCUGAACCAUCC	APOLD1	1.389
UAAGUCAGAACAGCUCCUG	ODF4	-0.2894
AGCGUGUCCAUCUCGAUGC	LAMA5	-1.742
UUCCCAAGUAUUGUGCUCC	CBX5	-0.3535
UAGGACUUGACCGGUAUGC	ATP13A2	1.588
AGAAUAUUCCUUUCACAGC	STAG3L1	-0.6906
AAGCUAGCAACACCAAGCC	RNF26	0.1428
UAUCCUUUAUCGAAUGUGC	CARKD	-0.3186
UAAUUAGUCUUCGAAUUCC	TWF1	-0.1298
UAACGUAAAACAGAAGUAC	ATAD5	-0.496
UUCUGGAUUCUGAUUGAGG	STRADB	-0.119
UUUCUUACCGGGCAAUAGC	PXYLP1	0.3337
AGAACUUCCAGAUACUGUC	TSC22D4	-0.9506
AGAUUGAUAACGAAUAUGC	NUP35	-0.2575
UAUCGGAUUACGAUGCAGC	TMEM53	1.078
UUCUCUUGCACAAUAACUG	FAM105A	-0.6207
GUGCAUCUCAGCCACGUUG	CCDC188	0.4869
UGAUCAAUAACCUUCGUCU	RBP2	-0.005676
UGAUUUCACUGUACCAUCU	GLIPR2	0.5189
AAGAGGUGCAUUUGUACUC	MT1CP	-0.06137
UGACAUAUGAGCAGGAUGC	SLCO6A1	-0.07076
AUAGUAGAAGGGAUCGUCU	FXYD4	1.338
UAUAGGUAAUUUGUCUGGG	CAD	-0.5369

Repeated from the top, 7 entries:

Result for UUGAGGAUCAGCCUUAGAC against RANBP3L was seed-corrected z-score 0.5899.
Result for UUCCGGUAGAGCUUCAGCG against UBXN11 was seed-corrected z-score -0.8855.
Result for UUAGAUGAACACUUCCUGC against LINC00922 was seed-corrected z-score 0.1459.
Result for UUUAGUCUCAUAGCAUACC against AFF3 was seed-corrected z-score -0.6075.
Result for UAUCGAACUUCAGGUAUUC against NDUFA10 was seed-corrected z-score 0.4703.
Result for UUUCGAGCAAACCUCAGUC against KCNQ5 was seed-corrected z-score -0.9419.
Result for UCUUCUAACUGCGUCAAUG against DNAJC18 was seed-corrected z-score 0.1063.